# According to PubChem BioAssay AID1347422 (Sanford-Burnham Center for Chemical Genomics, 2020):
# By UniProt entry, the sequences of proteins in these tests, tags left out. Where a name states a change or a piece, a line headed by the entry shows the natural chain unless it says otherwise.
# UniProt O00391: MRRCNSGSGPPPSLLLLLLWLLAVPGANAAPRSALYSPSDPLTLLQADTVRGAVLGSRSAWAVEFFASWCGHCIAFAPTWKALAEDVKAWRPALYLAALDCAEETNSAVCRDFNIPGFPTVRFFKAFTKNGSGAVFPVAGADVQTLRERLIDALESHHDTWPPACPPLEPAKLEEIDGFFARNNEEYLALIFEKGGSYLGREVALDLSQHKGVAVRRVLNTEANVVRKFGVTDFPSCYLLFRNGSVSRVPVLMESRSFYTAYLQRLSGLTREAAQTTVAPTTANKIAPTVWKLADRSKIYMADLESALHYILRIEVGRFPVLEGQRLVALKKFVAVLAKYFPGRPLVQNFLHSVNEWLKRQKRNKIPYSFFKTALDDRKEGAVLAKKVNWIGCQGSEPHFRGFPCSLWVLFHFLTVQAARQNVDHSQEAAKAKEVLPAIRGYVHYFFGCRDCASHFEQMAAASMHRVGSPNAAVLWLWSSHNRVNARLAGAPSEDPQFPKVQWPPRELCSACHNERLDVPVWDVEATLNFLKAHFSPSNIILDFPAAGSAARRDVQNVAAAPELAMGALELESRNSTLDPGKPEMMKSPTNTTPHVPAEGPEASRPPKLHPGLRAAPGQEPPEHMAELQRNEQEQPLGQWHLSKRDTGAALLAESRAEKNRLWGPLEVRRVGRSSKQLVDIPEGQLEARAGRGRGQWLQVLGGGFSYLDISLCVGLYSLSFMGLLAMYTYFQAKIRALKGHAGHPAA
# In all, about 1,000 compounds were measured (“thermal shift dTm”: median about 0.19, highest 2% from about 1.7 on). Some of the results follow. Active and inactive are the calls of the source.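 The calls were made as follows: active = mean rise in melting temperature of at least 1 degC over same-plate control wells; inactive = below that, where a call was filed.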
# Biological target: Sulfhydryl oxidase 1 (Homo sapiens) (UniProt O00391)
# Test: ligand-induced melting shift of human QSOX1 – biophysical, protein thermal shift, single concentration, QSOX1 inhibitor project, confirmation (AID 1347422);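 also: dTm is compound Tm minus mean Tm of DMSO-only wells on that plate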
# Details: recombinant hQSOX1 thermal shift, Sypro Orange, at 25 µM, stronger effect = higher value
row,Compound,thermal shift dTm
1,C=CCc1c(C)nc2c(-c3ccccc3)cnn2c1NCc1ccccn1,0.11 °C
2,O=C(Cc1ccc(Cl)cc1)Nc1ccc(-c2nc3ccccc3s2)cc1,0.05 °C
3,Cc1ccc(OCCOCCOc2cccc3cccnc23)c(C(C)(C)C)c1,0.24 °C
4,O=S1(=O)CC2C(C1)N(c1cccc(C(F)(F)F)c1)C(=S)N2c1ccccc1 (stereo not drawn),inactive: -0.16 °C
5,Cc1nc(-c2cccc(NC(=O)c3cccc(F)c3)c2)cs1,active: 3.41 °C
6,O=C(CC(c1ccccc1)c1cc(Br)ccc1O)NCc1ccccc1Cl (stereo not drawn),0.25 °C
7,CC(=O)Nc1ccc(NC(=O)c2cc3ccccc3o2)cc1,active: 1.73 °C
8,COc1cccc(C(=O)NCCC(=O)Nc2cccc(F)c2)c1,0.23 °C
9,Cc1ccc(S(=O)(=O)Nc2cccc(NC(=O)c3cccs3)c2)cc1,0.48 °C
10,Cc1ccc2nc(-c3ccc(N=Cc4ccccc4O)cc3)sc2c1,0.1 °C
11,COC(=O)c1ccc(N2CCN(CCNC(=O)Nc3ccc(OC)cc3)CC2)cc1,0.42 °C
12,COc1cc(/C=C2\N=C(SCc3ccccc3)SC2=O)ccc1OCc1ccccc1,0.63 °C
13,CCOC(=O)c1ccc(NC(=S)NCC(O)c2ccccc2)cc1 (stereo not drawn),0.1 °C
14,COc1ccccc1CCNC(=O)c1cc(Cc2ccccc2Cl)no1,0.05 °C
15,COc1cc(NC(=O)c2csc3ccccc23)cc(OC)c1OC,0.27 °C
16,Cc1ccc(NC(=O)C(C)Sc2nc3c(c(=O)[nH]2)CCCC3)cc1Cl (stereo not drawn),0.01 °C
17,CCC(C)C(=O)Nc1ccc(-c2nc3ccc(C(=O)c4ccccc4)cc3[nH]2)cc1 (stereo not drawn),inactive: -0.44 °C
18,CC(=O)c1[nH]c(C)c(-c2nc(C3(c4ccc(F)cc4)CCOC3)no2)c1C (stereo not drawn),0.18 °C
19,Cc1cc(OCCn2cc(C(=S)N3CCOCC3)c3ccccc32)ccc1Cl,0.02 °C
20,Cc1ccc(/C=C/C(=O)NCCNC(=O)/C=C/c2ccc(C)cc2)cc1,0.77 °C
21,O=C(NC1CCCCC1)c1cccc(OCc2ccccc2Cl)c1,0.07 °C
22,O=C(Nc1ccc(Cl)cc1)NC1CC2CCC1C2 (stereo not drawn),0.52 °C

# Exported tab-delimited: entries from further up.
row	Compound	thermal shift dTm
4	O=S1(=O)CC2C(C1)N(c1cccc(C(F)(F)F)c1)C(=S)N2c1ccccc1 (stereo not drawn)	inactive: -0.16 °C
5	Cc1nc(-c2cccc(NC(=O)c3cccc(F)c3)c2)cs1	active: 3.41 °C

# (next part)

row,Compound,thermal shift dTm
1,CCC(=O)Nc1ccc(NC(=O)c2ccccc2C)c(O)c1,0.27 °C
2,CC(=O)Nc1ccc(C(=O)CSc2ccc3ccccc3n2)cc1,active: 1.22 °C
3,COc1ccc(-c2[nH]ncc2Oc2ccccc2F)c(O)c1,0.05 °C
4,COc1ccc(C(=O)Nc2nc(-c3cc(OC)ccc3OC)c(C)s2)cc1,active: 2.73 °C
5,Cc1ccc(OCCOc2ccccc2C)c(/C=C2/N=C(c3cccs3)OC2=O)c1,0.16 °C
6,O=C(/C=C/c1ccco1)Nc1ccc(Br)cc1F,0.01 °C
7,O=C(CCCc1c[nH]c2ccccc12)NCCOc1ccc(Cl)cc1,inactive: -0.03 °C
8,Cc1cc(N(C)C)nc(N2CCN(C(=O)Nc3cccc(F)c3)CC2)n1,inactive: -0.08 °C
9,COc1ccc(C(=O)Nc2ccc(Cl)c(C)n2)cc1Cl,active: 1.85 °C
10,O=C(Nc1ccc(Cl)cn1)c1cccc(NC(=O)c2cccs2)c1,0.37 °C
11,N#CCCn1cc(C(=O)Nc2nccs2)c(-c2cc3ccccc3o2)n1,0.38 °C
12,Cc1cc(Br)c(-c2ccc(/C=C3/SC(N)=NC3=O)o2)cc1C,active: 1.03 °C
13,Cc1cccc(NC(=O)Nc2ccc(C(N)=O)cc2)c1C,0.6 °C
14,NC(=O)c1cn(-c2ccccc2)nc1-c1cccc(Br)c1,inactive: -0.72 °C
15,CSC1=N/C(=C\c2ccc(-c3ccc(Br)cc3)o2)C(=O)S1,0.3 °C
16,COc1c(C)cccc1C(=O)Nc1cccc2cccnc12,inactive: -0.09 °C
17,CN(C)c1nc2n(c(=O)n1)CCN2C(=O)Nc1ccccc1,0 °C
18,CCOc1ccc(NC(=O)CSc2c(-c3ccccc3)c3cc(Cl)ccc3[nH]c2=O)cc1,0.68 °C
19,O=C(CN(c1ccccc1F)S(=O)(=O)c1ccccc1)Nc1ccc(F)cc1F,inactive: -0.03 °C
20,Cc1cc(Br)ccc1OCCCCn1cnc2ccccc2c1=O,0.17 °C
21,O=C(COc1ccc(Cl)cc1)Nc1cccc(NC(=O)c2ccco2)c1,0.71 °C
22,Nc1cccc(/C=C/C(=O)c2ccccc2)c1,0.57 °C

# 4 structures already listed, sorted by molecular weight, low to high.
row,Compound,thermal shift dTm
16,COc1c(C)cccc1C(=O)Nc1cccc2cccnc12,inactive: -0.09 °C
6,O=C(/C=C/c1ccco1)Nc1ccc(Br)cc1F,0.01 °C
12,Cc1cc(Br)c(-c2ccc(/C=C3/SC(N)=NC3=O)o2)cc1C,active: 1.03 °C
4,COc1ccc(C(=O)Nc2nc(-c3cc(OC)ccc3OC)c(C)s2)cc1,active: 2.73 °C

# Quoted from the listing:
# For thermal shift dTm, `CCC(C)C(=O)Nc1ccc(-c2nc3ccc(C(=O)c4ccccc4)cc3[nH]2)cc1` (stereo not drawn) is entered as inactive: -0.44 °C
# For thermal shift dTm, `Cc1ccc2nc(-c3ccc(N=Cc4ccccc4O)cc3)sc2c1` is entered as 0.1 °C

# Next part:

row,Compound,thermal shift dTm
1,Cc1cccc(NC(=O)c2ccc(NC(=O)c3ccccc3)cc2)n1,0.32 °C
2,CCC(C)c1ccccc1OCC(=O)Nc1cccc(NC(C)=O)c1 (stereo not drawn),0.41 °C
3,CCn1c(SCC(=O)Nc2ccc3c(c2)OCO3)nc2sc(C)c(C)c2c1=O,inactive: -0.04 °C
4,CCC(=O)Nc1nc(-c2cccc(NC(=O)c3cccnc3)c2)cs1,0.18 °C
5,CCOc1ccc(N2C(=O)N(c3ccc(C)cc3)C3CS(=O)(=O)CC32)cc1 (stereo not drawn),0.21 °C
6,COc1ccc(-c2n[nH]c(C)c2Oc2ccc(F)cc2)c(O)c1,inactive: -0.09 °C
7,COc1cc(C=Nc2ccc(-c3nc4ccc(C)cc4s3)cc2)ccc1O,0.05 °C
8,COc1ccc(Br)c(/C=C/c2ccc3cccc(O)c3n2)c1,inactive: -0.13 °C
9,CC(=O)Oc1ccc(-c2csc(Nc3ccccn3)n2)cc1,0.21 °C
10,Cc1ccccc1COc1ccc(Br)cc1/C=C1/N=C(c2ccco2)OC1=O,0.82 °C
11,c1ccc(COc2ccc(-c3noc(-c4ccccn4)n3)cc2)cc1,0.01 °C
12,COc1ccc(OCC(=O)Nc2cccc(-c3cnc4ccccc4n3)c2)cc1,0.16 °C
13,Cc1cc(-n2nc(C)cc2C)nc(-c2ccccc2O)n1,0.04 °C
14,NC(=O)c1ccc(-c2cccc(-c3ccn[nH]3)c2)cc1,0.42 °C
15,COc1ccc(Nc2c(C(=O)O)cnc3ccc(Cl)cc23)cc1Cl,0.34 °C
16,COc1ccc2[nH]cc(CCNC(=O)c3ccc(NC(C)=O)cc3)c2c1,active: 1 °C
17,Cc1ccc(C2Nc3c(C)ccc(C(=O)O)c3C3C=CCC32)cc1 (stereo not drawn),active: 1.51 °C
18,O=C(Nc1cccc(-c2noc(CCc3ccccc3)n2)c1)c1cccs1,0.1 °C
19,CCCCC1=NN2C(=N)/C(=C/c3ccc(OC(=O)c4ccc(F)cc4)c(OC)c3)C(=O)N=C2S1,0.16 °C
20,COc1ccccc1NC(=O)N1c2ccccc2Sc2ccccc21,inactive: -0.03 °C
21,CCCSC1=N/C(=C\c2ccc(-c3ccc(Cl)cc3)o2)C(=O)S1,0.95 °C
22,O=S(=O)(NCCC1=CCCCC1)c1ccc(Cl)s1,0.17 °C

row,Compound,thermal shift dTm
1,C=CC(C)(C)OCC(O)CN1C(C)(C)CC(O)CC1(C)C (stereo not drawn),0.13 °C
2,Cc1ccc(Cl)c(OCc2nnc3n2N=C(c2ccccc2)CS3)c1,0.25 °C
3,O=C(Nc1cccc(-c2nn[nH]n2)c1)c1cc2c(s1)CCCCC2,0.7 °C
4,CCOc1ccccc1-c1nc2ccc(Br)cc2c(=O)o1,0.44 °C
5,O=C(Nc1nccs1)c1cccc(NC(=O)c2cccs2)c1,active: 1.45 °C
6,Nc1cccc(Oc2ccc(C(=O)O)c(C(=O)O)c2)c1,0.84 °C
7,O=S(=O)(c1cccs1)N1CCC(CO)(Cc2ccc(Cl)cc2)CC1,0.18 °C
8,CS(=O)(=O)Nc1ccc(C2=NN(C(=O)c3cccs3)C(c3cccs3)C2)cc1 (stereo not drawn),0.61 °C
9,Cc1ccc(CN2CCN(/N=C\c3ccc(O)cc3)CC2)cc1,0.1 °C
10,O=C(Nc1ccc(Cl)cc1)Nc1ccccc1OC(F)F,0.25 °C
11,CCCOC(=O)c1c(NC(=O)C2CC=CCC2C(=O)O)sc(C)c1-c1ccc(F)cc1 (stereo not drawn),0.77 °C
12,CN1C(=O)NC(NC(=O)CCc2ccccc2)(C(F)(F)F)C1=O (stereo not drawn),0.16 °C
13,COc1cccc(C(=O)NCCc2c[nH]c3ccc(C)cc23)c1,0.07 °C
14,Brc1ccc(Nc2nc(NCc3ccco3)c3ccccc3n2)cc1,inactive: -0.54 °C
15,O=C(Nc1ccccc1)N(Cc1ccc(Cl)cc1)Cc1ccco1,0.16 °C
16,COc1ccccc1NC(=O)CSCc1cccc2ccccc12,0.02 °C
17,O=C(NCCOc1ccccc1Cl)c1cccc(I)c1,0.86 °C
18,c1csc(-c2nc(-c3cccs3)c(-c3cccs3)[nH]2)c1,0.06 °C
19,COc1ccc(N2C(=O)N(c3ccc(F)cc3)C3CS(=O)(=O)CC32)cc1 (stereo not drawn),0.02 °C
20,O=C(COc1ccc(Cl)cc1Cl)NCCSCc1ccccc1Cl,0.1 °C
21,CCC(Oc1ccccc1)c1nnc(NC(=O)Cc2ccccc2)s1 (stereo not drawn),0.4 °C
22,Cc1cc(OCC(=O)Nc2ccc(O)cc2)cc(C)c1Cl,0.45 °C

row,Compound,thermal shift dTm
1,CSc1ncc(Cl)c(C(=O)Nc2nnc(SCc3ccccc3)s2)n1,0.28 °C
2,O=C(COc1ccc(Cl)cc1)Nc1ccc(C(=O)NCC2CCCO2)cc1 (stereo not drawn),inactive: -0.05 °C
3,O=S(=O)(c1cccs1)N1CCC(CO)(Cc2ccccc2C(F)(F)F)CC1,0.43 °C
4,COc1ccc2[nH]cc(CCNC(=O)c3ccc(OC(C)=O)cc3)c2c1,0.81 °C
5,COc1cc(/C=N/O)cc(Cl)c1OCc1ccccc1F,0.06 °C
6,COc1ccc(CC2(CO)CCN(S(=O)(=O)c3ccc(Cl)s3)CC2)cc1,0.61 °C
7,O=C(c1ccc(NC(=O)c2ccccc2F)cc1)c1cccs1,0.94 °C
8,NS(=O)(=O)c1ccc(NC(=O)c2ccc(Br)s2)cc1,0.74 °C
9,Cc1ccc(Nc2nc(C3(C)CC4(CC(C)OC4=O)C(=O)O3)cs2)cc1 (stereo not drawn),0.11 °C
10,CC(=O)Nc1ccc(NC(=O)CCc2nc(-c3ccccc3)no2)cc1,0.14 °C
11,O=C(Nc1nc(-c2ccccc2Cl)cs1)Oc1ccccc1,0.16 °C
12,COc1cc(NC(=O)Nc2cccc(C)c2)cc(OC)c1,0.52 °C
13,CCOc1ccc(NC(=O)Nc2cc(OC)c(OC)c(OC)c2)cc1,active: 1.64 °C
14,Cn1cc(C(=O)CSc2nnc(-c3ccccc3)o2)c2ccccc21,0.23 °C
15,NC(=O)c1ccnc(-c2ccc(-c3ccn[nH]3)cc2)c1,inactive: 0 °C
16,CCOC(=O)c1cc(C)sc1NC(=O)CC1Sc2ccccc2NC1=O (stereo not drawn),0.02 °C
17,O=C1CN(Cc2cn(C3CCN(C(=O)Nc4ccc(F)cc4)CC3)nn2)CCN1,0.14 °C
18,C=CCc1c(C)nc2c(-c3ccccc3)cnn2c1NCc1cccnc1,inactive: -0.08 °C
19,COc1ccc(-c2noc(CSc3nc(-c4ccccc4)cc(=O)[nH]3)n2)cc1,0.07 °C
20,CCS(=O)(=O)c1ccc(O)c(Nc2cc(-c3ccccc3)ncn2)c1,inactive: -0.05 °C
